From patent publication EP4119947A1 come the findings set out here.

The chains behind the UniProt entries cited, without tags or fusion partners. Where a name states a change or a piece, a line headed by the entry shows the natural chain unless it says otherwise.
UniProt P51654: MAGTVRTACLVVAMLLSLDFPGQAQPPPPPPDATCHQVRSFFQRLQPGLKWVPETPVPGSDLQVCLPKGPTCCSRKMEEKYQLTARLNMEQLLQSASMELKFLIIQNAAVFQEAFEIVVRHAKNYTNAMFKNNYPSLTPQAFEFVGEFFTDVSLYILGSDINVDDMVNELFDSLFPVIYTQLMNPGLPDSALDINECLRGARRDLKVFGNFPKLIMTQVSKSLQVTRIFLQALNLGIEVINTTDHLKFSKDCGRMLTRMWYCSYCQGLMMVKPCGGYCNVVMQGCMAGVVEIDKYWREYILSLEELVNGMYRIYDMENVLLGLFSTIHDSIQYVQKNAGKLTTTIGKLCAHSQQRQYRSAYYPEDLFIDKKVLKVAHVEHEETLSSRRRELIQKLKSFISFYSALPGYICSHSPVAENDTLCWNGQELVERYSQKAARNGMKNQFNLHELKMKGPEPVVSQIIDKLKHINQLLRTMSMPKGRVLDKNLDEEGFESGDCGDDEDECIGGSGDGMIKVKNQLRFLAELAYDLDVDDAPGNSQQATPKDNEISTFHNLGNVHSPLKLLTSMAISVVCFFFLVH

Results are given in words; binding and its absence hold for the method and conditions named. Some results given as binding are weak or reduced against the parent protein; the word gives no strength.

For assay [1], the target named is free GPC3 (human) (UniProt P51654). In words: antibody selection; used as capture antibody in sandwich immunoassay of serum free GPC3.
The target is the same in assay [2]. In words: antibody selection; used as labeled detection antibody in sandwich immunoassay of serum free GPC3.

B1: GT30 antibody (antibody, V domains shown)
VH: QVQLQQSGAELARPGASVKLSCRASGYTFTSYGISWMMQRTGQGLEWIGEIYPRSGITYYNEKFKGKATLTADKSSSTAYMQLSSLTSEDSAVYFCARDVSDGYLFPYWGQGTLVTVSA
VL: DIQMTQSPASLSASVGETVTITCRTSENIYSYLAWYQQKQGKSPQLLVYNAKTLPEGVPSRFSGSGSGTQFSLKINSLQPEDFGSYYCQHHYGTPPTFGGGTKLEIKR
Regarding B1, the binding result with free GPC3 (human) [1] is “binds”.

B2: GT607 antibody (antibody, V domains shown)
VH: EVQLVESGGDVVRPGGSLKLSCAASGFTFSSYGMSWVRQLPDKRLEWVASVGNGGSYRYYPENLKGRFTISRDNTKNTLYLQISGLKSEDTAIYYCARRGAFPYFDVWGAGTTVTVSS
VL: B1 VL
B2: the binding result with free GPC3 (human) [2] was “binds”.

B3: GT114 antibody (antibody, V domains shown)
VH: DVQLQESGPGLVKPSQSLSLTCTVTGYSITSDSAWNWIRQFPGNKLEWMAYIMYSGITSYNPSLKSRISITRDTAKNQFFLQLNSVTTEDSATYYCSRGYWYFDVWGAGTTVTVSS
VL: QIVLTQSPAIMSASLGEEITLTCSASSSVSYMHWYQQKSGTSPKLLIYSTSILASGVPSRFSGSGSGTFYSLTISSVEAEDAADYYCLQWITYRTFGGGTKLEIKR
On to B3, for which, in the assay with free GPC3 (human) [1], the binding entry is “binds”.

B4: GT165 antibody (antibody, V domains shown)
VH: QVQLQQSGAELVGPGASVKISCKAFGYTFTNHHINWVKQRPGQGLDWIGYINPYNDYTNYNQKFKGKATLTVDKSSSTAYMELSSLTSEDSAVYYCARSDPAWFAYWGQGTLVTVSA
VL: DIQMTQSPSSLSASLGGKVTITCKASQDINKNIAWYQHKPGKGPRLLIWYTYTLQPGIPSRFSGSGSGRDYSFSISNLEPEDIATYYCLQYDNLPFTFGTGTKLEIKR
Take B4: the binding entry in the assay with free GPC3 (human) [2] is on record as “binds”.
